Data reported in paper doi:10.1101/2025.04.22.649924.
No constants are given. Whether binding was seen depends on the method and setting. In cells and extracts the contact can be indirect. Here binding means that the protein was enriched with, or labelled near, the bait; the list need not be complete.

The chains behind the UniProt entries cited, without tags or fusion partners. Residues count along the entry.
UniProt Q92673, residues 82-2214: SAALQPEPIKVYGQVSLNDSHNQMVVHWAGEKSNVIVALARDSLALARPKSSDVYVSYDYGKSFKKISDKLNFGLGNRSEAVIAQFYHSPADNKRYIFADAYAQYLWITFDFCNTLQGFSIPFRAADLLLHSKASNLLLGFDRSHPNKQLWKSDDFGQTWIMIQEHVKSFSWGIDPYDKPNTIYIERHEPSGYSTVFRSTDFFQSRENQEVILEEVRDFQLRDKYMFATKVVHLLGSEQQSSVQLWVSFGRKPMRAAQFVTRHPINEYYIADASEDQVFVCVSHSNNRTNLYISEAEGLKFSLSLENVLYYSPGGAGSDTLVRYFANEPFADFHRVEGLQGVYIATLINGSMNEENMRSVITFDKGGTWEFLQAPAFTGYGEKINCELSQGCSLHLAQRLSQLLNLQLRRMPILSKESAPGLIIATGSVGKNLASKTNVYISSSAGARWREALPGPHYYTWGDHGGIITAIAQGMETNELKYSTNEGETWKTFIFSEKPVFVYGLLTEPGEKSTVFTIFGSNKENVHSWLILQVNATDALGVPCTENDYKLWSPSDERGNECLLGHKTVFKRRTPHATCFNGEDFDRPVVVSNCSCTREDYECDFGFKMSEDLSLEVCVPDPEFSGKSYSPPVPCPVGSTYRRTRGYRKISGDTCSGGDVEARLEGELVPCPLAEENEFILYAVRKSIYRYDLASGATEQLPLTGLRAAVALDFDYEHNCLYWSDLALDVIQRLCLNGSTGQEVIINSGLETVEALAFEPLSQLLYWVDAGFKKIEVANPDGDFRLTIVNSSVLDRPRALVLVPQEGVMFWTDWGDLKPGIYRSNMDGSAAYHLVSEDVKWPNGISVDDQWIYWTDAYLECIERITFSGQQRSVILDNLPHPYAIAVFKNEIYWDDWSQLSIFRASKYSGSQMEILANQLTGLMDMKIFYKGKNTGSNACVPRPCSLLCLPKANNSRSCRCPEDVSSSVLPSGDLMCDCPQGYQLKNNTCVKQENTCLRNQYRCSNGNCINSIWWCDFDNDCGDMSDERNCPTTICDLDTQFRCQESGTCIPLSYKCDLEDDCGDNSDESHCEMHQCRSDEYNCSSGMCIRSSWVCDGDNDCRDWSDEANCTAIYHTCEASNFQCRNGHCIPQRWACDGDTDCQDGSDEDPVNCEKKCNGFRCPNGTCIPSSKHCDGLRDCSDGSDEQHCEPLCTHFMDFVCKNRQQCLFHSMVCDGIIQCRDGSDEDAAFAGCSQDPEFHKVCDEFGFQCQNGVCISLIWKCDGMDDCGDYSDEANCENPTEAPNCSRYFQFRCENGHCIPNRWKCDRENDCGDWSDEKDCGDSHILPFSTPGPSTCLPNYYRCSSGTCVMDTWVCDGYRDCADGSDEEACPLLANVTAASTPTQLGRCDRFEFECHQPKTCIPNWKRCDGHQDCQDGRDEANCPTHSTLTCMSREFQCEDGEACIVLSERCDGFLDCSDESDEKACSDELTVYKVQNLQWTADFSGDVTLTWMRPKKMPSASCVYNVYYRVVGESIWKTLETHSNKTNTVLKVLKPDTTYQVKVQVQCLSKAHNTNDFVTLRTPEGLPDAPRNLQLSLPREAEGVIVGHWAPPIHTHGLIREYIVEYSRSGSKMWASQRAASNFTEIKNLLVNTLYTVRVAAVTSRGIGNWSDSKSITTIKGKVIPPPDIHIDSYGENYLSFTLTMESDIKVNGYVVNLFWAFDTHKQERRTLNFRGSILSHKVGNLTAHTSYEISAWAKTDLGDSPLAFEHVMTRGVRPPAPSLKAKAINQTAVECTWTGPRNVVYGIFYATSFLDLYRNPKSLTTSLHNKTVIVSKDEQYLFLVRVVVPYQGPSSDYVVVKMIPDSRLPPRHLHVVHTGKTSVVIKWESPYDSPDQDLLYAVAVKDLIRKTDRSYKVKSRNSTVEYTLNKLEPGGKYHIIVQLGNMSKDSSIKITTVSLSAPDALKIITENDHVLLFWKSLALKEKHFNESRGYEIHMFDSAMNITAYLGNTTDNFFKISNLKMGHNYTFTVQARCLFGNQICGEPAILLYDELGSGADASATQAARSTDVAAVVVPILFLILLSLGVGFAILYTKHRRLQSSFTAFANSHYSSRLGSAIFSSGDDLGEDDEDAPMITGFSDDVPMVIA
UniProt P05067, residues 18-770: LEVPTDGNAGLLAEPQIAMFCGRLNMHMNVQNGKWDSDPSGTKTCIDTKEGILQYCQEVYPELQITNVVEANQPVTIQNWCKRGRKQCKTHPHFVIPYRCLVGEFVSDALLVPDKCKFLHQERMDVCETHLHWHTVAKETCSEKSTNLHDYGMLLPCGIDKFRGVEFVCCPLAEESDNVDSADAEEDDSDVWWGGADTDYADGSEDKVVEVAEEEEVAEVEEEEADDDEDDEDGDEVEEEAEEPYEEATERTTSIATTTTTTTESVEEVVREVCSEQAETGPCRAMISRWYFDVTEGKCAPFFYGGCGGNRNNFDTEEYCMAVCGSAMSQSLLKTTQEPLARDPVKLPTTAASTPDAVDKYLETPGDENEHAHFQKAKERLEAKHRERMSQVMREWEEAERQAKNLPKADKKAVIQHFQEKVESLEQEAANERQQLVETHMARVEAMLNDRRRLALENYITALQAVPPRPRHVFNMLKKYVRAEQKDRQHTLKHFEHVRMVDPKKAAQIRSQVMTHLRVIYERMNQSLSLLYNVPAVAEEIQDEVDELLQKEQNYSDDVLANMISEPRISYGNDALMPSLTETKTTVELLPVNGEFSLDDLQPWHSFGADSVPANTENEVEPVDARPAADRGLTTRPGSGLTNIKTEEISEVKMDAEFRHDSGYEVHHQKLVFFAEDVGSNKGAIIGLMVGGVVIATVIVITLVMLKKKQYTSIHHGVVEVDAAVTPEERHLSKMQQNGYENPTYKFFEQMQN

Molecular target: SORLA^WT stably expressed in SY5Y cells (human) (UniProt Q92673)
Test: affinity purification with mass spectrometry

Substance: amyloid precursor protein (APP) in SY5Y cell lysate (from UniProt P05067 18-770)
- binding: binds
